# Data taken from PubChem BioAssay AID504847 (National Center for Advancing Translational Sciences (NCATS), 2011).
# Amino acid sequences for entries named in this document (tags omitted). A change or cut given only in a name is not applied to a line headed by its entry.
# UniProt P11473: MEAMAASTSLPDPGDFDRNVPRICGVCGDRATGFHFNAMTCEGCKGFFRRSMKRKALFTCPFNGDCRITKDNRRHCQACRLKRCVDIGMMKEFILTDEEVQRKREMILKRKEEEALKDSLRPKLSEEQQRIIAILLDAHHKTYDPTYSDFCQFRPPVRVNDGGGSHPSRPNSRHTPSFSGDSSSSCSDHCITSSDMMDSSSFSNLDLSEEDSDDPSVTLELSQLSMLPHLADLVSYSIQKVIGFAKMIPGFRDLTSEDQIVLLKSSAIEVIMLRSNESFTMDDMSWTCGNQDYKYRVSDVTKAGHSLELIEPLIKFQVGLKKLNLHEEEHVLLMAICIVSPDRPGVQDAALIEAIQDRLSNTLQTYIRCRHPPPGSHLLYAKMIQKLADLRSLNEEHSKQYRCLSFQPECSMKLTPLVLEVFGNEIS
# Hit rate of the full screen: of about 400,000 compounds, about 3,700 (0.93%) were called active. Inconclusive means that the source gave no clear call. Such entries were picked first, then a sample of the others. The call rests on the fitted dose curve; in most records, active means well fitted inhibition curve with a large enough effect; inconclusive means small, poorly fitted or top-dose-only effect, or another doubt; inactive means no such curve, though single readings can be large or run the other way. Potencies beside an inconclusive call are fits to weak or partial responses and may not hold up. Where a SMILES comes first, the peptide text is derived from it. Bridges are numbered along the chain shown (N, C = ends).
# Target: Vitamin D3 receptor (Homo sapiens) (UniProt P11473)
# Assay: Inhibitors of the vitamin D receptor (VDR): qHTS
# Conditions: VDR-SRC2-3 peptide fluorescence polarization, 2 h; max response, negative = inhibition: hits give low values
# How it was run: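 Compounds are added to VDR with labelled SRC2-3 coactivator peptide and held 2 h at room temperature. Inhibition of the VDR–peptide interaction is then read as a change in fluorescence polarization.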
# On the % scale 0 is the no-effect control and ±100 the full control effect; potency means the concentration at half of the fitted maximal effect.
SMILES,Potency,"max response, negative = inhibition"
COc1ccc(C(C(=O)NC2CCCCC2)N(Cc2ccco2)C(=O)c2snc(C(N)=O)c2N)cc1 (centres undefined),"inconclusive: 89.1 µM [inhibitor, single point]",–
Cc1ccnc(NC(=O)CNC(=O)COc2ccccc2)c1,"inconclusive: 89.1 µM [inhibitor, single point]",–
COc1ccccc1NC(=O)CCC(=O)OCc1ccc(Br)cc1,"inconclusive: 89.1 µM [inhibitor, single point]",–
Cc1ccc(NC2CCCN(C(=O)CSc3ccncc3)C2)cc1C (centres undefined),–,inactive: -10.3%
CC(=O)Nc1nnc(CSCc2ccc(F)cc2)s1,"inconclusive: 79.4 µM [inhibitor, partial curve, poor fit]",–
CCOc1cc(/C=C(\C#N)C(=O)Nc2cccc(C(=O)O)c2)cc(Br)c1OC(=O)c1ccc(OC)cc1,active: 25.1 µM,–
N#Cc1nc(-c2ccco2)oc1N1CCOCC1,–,inactive: 9.46%
O=C1NC(=Nc2cccc(O)c2)S/C1=C\c1cccc([N+](=O)[O-])c1,"inconclusive: 89.1 µM [inhibitor, single point]",–
Cc1cc(C(=O)NNC(=O)Nc2cccc(C(F)(F)F)c2)no1,"inconclusive: 89.1 µM [inhibitor, single point]",–
CC(C)CC(OC(=O)c1cccs1)C(=O)NCc1ccco1 (centres undefined),"inconclusive: 79.4 µM [inhibitor, partial curve]",–
O=C(c1ccc(Cl)cc1)n1cnc2ccccc21,"inconclusive: 100 µM [inhibitor, single point]",–
CCOC(=O)C1=C(C)N=c2s/c(=C/c3cccc([N+](=O)[O-])c3O)c(=O)n2C1c1ccccc1 (centres undefined),"inconclusive: 70.8 µM [inhibitor, partial curve, poor fit]",–
O=C(O)c1ccccc1-c1ccc(/C=c2\sc3nc4cc(Br)cnc4n3c2=O)o1,"inconclusive: 56.2 µM [inhibitor, partial curve, poor fit]",–
CC[C@]12c3[nH]c4cc(-c5ccco5)ccc4c3CCN1C(=O)[C@@H](CC(=O)NC/C=C(\C)CCC=C(C)C)C[C@@H]2C(=O)N1CCN(C(=O)C2CC2)CC1,"inconclusive: 70.8 µM [inhibitor, partial curve, poor fit]",–
CC(C)=CCC/C(C)=C/CNC(=O)C[C@H]1C[C@H](C(=O)N2CCCCC2)[C@@]2(C)c3[nH]c4cc(-c5ccco5)ccc4c3CCN2C1=O,"inconclusive: 89.1 µM [inhibitor, single point]",–
C[C@@H](O)[C@@H]1NC(=O)[C@H](CCCCN)NC(=O)[C@H](Cc2c[nH]c3ccccc23)NC(=O)[C@H](Cc2ccccc2)NC(=O)[C@H](Cc2ccccc2)NC(=O)[C@H](CC(N)=O)NC(=O)[C@H](CCCCN)NC(=O)[C@@H](NC(=O)[C@@H]2CCCN2)CSSC[C@@H](C(=O)N[C@@H](CCCCN)C(=O)O)NC(=O)[C@H](CO)NC(=O)[C@H](CO)NC(=O)[C@H](Cc2ccccc2)NC1=O (H-PCKNFFWKTFSSCK-OH; disulfide 2-13),"inconclusive: 79.4 µM [inhibitor, partial curve, poor fit]",–
C#CCn1c(=NC(=O)CSCC(=O)N2CCOCC2)sc2ccccc21,"inconclusive: 79.4 µM [inhibitor, partial curve, poor fit]",–

SMILES,Potency,"max response, negative = inhibition"
CN(C)S(=O)(=O)c1ccc(NCC2COc3ccccc3O2)c([N+](=O)[O-])c1 (centres undefined),"inconclusive: 39.8 µM [inhibitor, partial curve, poor fit]",–
C[n+]1c2n(c3ccccc31)N=C(c1ccc(Cl)cc1)CS2,"inconclusive: 79.4 µM [inhibitor, partial curve, poor fit]",–
C=C(C)C(=O)Oc1ccc(N=Nc2ccc(C)cc2)ccc1=O,"inconclusive: 50.1 µM [inhibitor, partial curve, poor fit]",–
COc1cc(C(=O)NC(C)c2ccc(-n3ccnc3)cc2)cc(OC)c1C (centres undefined),–,inactive: -11.2%
O=S(=O)(c1ccccc1)[C@@]1(c2ccccc2)C[C@@H]2ON=C(c3cccc(Br)c3)[C@@H]2C1,"inconclusive: 79.4 µM [inhibitor, partial curve, poor fit]",–
O=c1c2ccsc2ncn1Cc1cccc(C(F)(F)F)c1,"inconclusive: 100 µM [inhibitor, single point]",–
CSCC[C@H](NC(=O)[C@H](Cc1ccccc1)n1c(=O)[nH]c2ccccc2c1=O)C(=O)N[C@@H](Cc1ccccc1)C(=O)O,"inconclusive: 89.1 µM [inhibitor, partial curve, poor fit]",–
Cc1cc(C)nc(SCC(=O)NC2=NC(=O)C(C)S2)n1 (centres undefined),"inconclusive: 50.1 µM [inhibitor, partial curve, poor fit]",–
COc1ccccc1NC(=S)NC(=O)/C=C/c1ccco1,"inconclusive: 89.1 µM [inhibitor, partial curve]",–
CSc1ccc(Cn2nnc(C(=O)Nc3ccc(C)c(C)c3)c2N)cc1,"inconclusive: 44.7 µM [inhibitor, full curve, poor fit]",–
COC(=O)CCC(=O)OC1(C)C(=O)C2=CN(Cc3ccc4c(c3)OCO4)C(c3ccc(OC)cc3)=CC2=C(Br)C1=O (centres undefined),"inconclusive: 100 µM [inhibitor, partial curve, poor fit]",–
CCN(CC)C(=O)C1CCCN(Cc2sccc2C)C1 (centres undefined),–,inactive: -2.05%
Cc1ccc(S(=O)(=O)N2CCN(C(=O)COc3ccc(NC(=O)c4ccco4)cc3)CC2)cc1,–,inactive: -23.6%
CCOc1ccccc1NC(=O)/C(C#N)=C/c1c(C)nn(-c2ccccc2)c1Cl,"inconclusive: 56.2 µM [inhibitor, partial curve, poor fit]",–
O=C1NC(=O)N2CCSC2(Cc2ccccc2)N1 (centres undefined),"inconclusive: 89.1 µM [inhibitor, single point]",–
CCOC(=O)c1nnc(-c2ccc(C)cc2)nc1Sc1ccccc1Cl,"inconclusive: 100 µM [inhibitor, single point]",–
Cc1nn(-c2cccc(C(=O)O)c2)c(C)c1[N+](=O)[O-],–,inactive: 12%

# Compounds shown so far with a CF3 group:
SMILES,Potency,"max response, negative = inhibition"
Cc1cc(C(=O)NNC(=O)Nc2cccc(C(F)(F)F)c2)no1,"inconclusive: 89.1 µM [inhibitor, single point]",–
O=c1c2ccsc2ncn1Cc1cccc(C(F)(F)F)c1,"inconclusive: 100 µM [inhibitor, single point]",–
